Measurements reported in PubChem BioAssay AID493246 (Drosophila RNAi Screening Center, 2011).

Aim: 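Genes fly cells need to grow and stay alive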 (primary screen)
System: Drosophila Kc and S2R+ cells
Reagents: long dsRNA against Drosophila genes
Detection: 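Raw, unnormalised count of remaining cells in each well; per-plate z-scores of cell number underlie the calls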
Reading the numbers: Kc cell number and S2R+ cell number: higher = more cells remaining
Rule for the call: 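Counted as a hit if cell number falls by a z-score of at least 3 within its plate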
The deposit covers about 21,000 reagents; below is an unselected part of those with a known target gene and a result. Over the whole deposit, 429 (2%) were called active. 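Values are raw and not normalised between plates; calls rest on per-plate z-scores that were not deposited.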 A number with no mark means an inactive call. A plus sign joins genes that one reagent is predicted to hit. Not given: the amount of reagent, the time to read-out.

| target gene | amplicon | Kc cell number, rep 1 | Kc cell number, rep 2 | S2R+ cell number, rep 1 | S2R+ cell number, rep 2 |
| --- | --- | --- | --- | --- | --- |
| CG15042 | DRSC19618 | 1.54e6 | 1.51e6 | 1.17e6 | 1.23e6 |
| CG30471 | DRSC07096 | 1.38e6 | 1.41e6 | 1.12e6 | 1.13e6 |
| Gr43a | DRSC06658 | 1.49e6 | 1.60e6 | 1.32e6 | 1.42e6 |
| Nurf-38 | DRSC04629 | 1.59e6 | 1.57e6 | 1.19e6 | 1.37e6 |
| CG43328 | DRSC05640 | 5.23e5 | – | 7.79e5 | – |
| CG14658 | DRSC12244 | 1.91e6 | 1.90e6 | 1.29e6 | 1.46e6 |
| CG43394 | DRSC01013 | 1.53e6 | 1.54e6 | 9.59e5 | 1.12e6 |
| Gpxl | DRSC06538 | 1.44e6 | 1.47e6 | 1.11e6 | 1.24e6 |
| COX5BL | DRSC02123 | 1.56e6 | 1.34e6 | 1.13e6 | 1.25e6 |
| CG14763 | DRSC06497 | 1.62e6 | 1.57e6 | 1.34e6 | 1.54e6 |
| CG31948 | DRSC00740 | 1.65e6 | 1.78e6 | 9.94e5 | 1.24e6 |
| CG34296 | DRSC13961 | 1.27e6 | 1.39e6 | 1.10e6 | 1.19e6 |
| Pfdn5 | DRSC16183 | 1.47e6 | 1.58e6 | 1.14e6 | 1.19e6 |
| CG43066 | DRSC06927 | 1.39e6 | 1.38e6 | 1.17e6 | 1.22e6 |
| vig2 | DRSC14402 | 1.57e6 | 1.50e6 | 1.20e6 | 1.29e6 |
| CG12093 | DRSC08252 | 1.37e6 | 1.52e6 | 1.29e6 | 1.25e6 |
| gammaTub23C | DRSC00820 | 1.33e6 | 1.36e6 | 1.03e6 | 1.16e6 |
| prc | DRSC11385 | 1.26e6 | 1.24e6 | 1.26e6 | 1.37e6 |
| CG9855 | DRSC12344 | 1.33e6 | 1.45e6 | 1.01e6 | 1.16e6 |
| CG10445 | DRSC14247 | 1.39e6 | 1.50e6 | 1.28e6 | 1.35e6 |
| CG17917 | DRSC12570 | 1.49e6 | 1.61e6 | 1.17e6 | 1.25e6 |
| Ggt-1 | DRSC19993 | 1.53e6 | 1.55e6 | 1.04e6 | 1.21e6 |
| trbl | DRSC11901 | 1.34e6 | 1.41e6 | 1.27e6 | 1.36e6 |
| ATPsynF | DRSC04482 | 1.40e6 | 1.50e6 | 1.04e6 | 1.09e6 |
| mRpL23 | DRSC08307 | 1.35e6 | 1.24e6 | 9.13e5 | 1.05e6 |
| RIOK1 | DRSC09853 | 1.47e6 | 1.55e6 | 1.28e6 | 1.24e6 |
| gd | DRSC20336 | 1.49e6 | 1.50e6 | 1.05e6 | 1.13e6 |
| vimar | DRSC05026 | 1.40e6 | 1.51e6 | 1.02e6 | 1.14e6 |

Next part, starting with the last 4 of the part before.
| target gene | amplicon | Kc cell number, rep 1 | Kc cell number, rep 2 | S2R+ cell number, rep 1 | S2R+ cell number, rep 2 |
| --- | --- | --- | --- | --- | --- |
| mRpL23 | DRSC08307 | 1.35e6 | 1.24e6 | 9.13e5 | 1.05e6 |
| RIOK1 | DRSC09853 | 1.47e6 | 1.55e6 | 1.28e6 | 1.24e6 |
| gd | DRSC20336 | 1.49e6 | 1.50e6 | 1.05e6 | 1.13e6 |
| vimar | DRSC05026 | 1.40e6 | 1.51e6 | 1.02e6 | 1.14e6 |
| CG15203 | DRSC19650 | 1.59e6 | 1.49e6 | 1.02e6 | 1.17e6 |
| CG15005 | DRSC08459 | 1.46e6 | 1.33e6 | 1.14e6 | 1.33e6 |
| CG6753 | DRSC16108 | 1.59e6 | 1.72e6 | 1.23e6 | 1.40e6 |
| Or71a | DRSC11244 | 1.40e6 | 1.56e6 | 1.34e6 | 1.49e6 |
| CG9667 | DRSC16535 | 1.50e6 | 1.61e6 | 1.13e6 | 1.26e6 |
| zda | DRSC06936 | 1.42e6 | 1.49e6 | 1.17e6 | 1.29e6 |
| Jhbp13 | DRSC02913 | 1.76e6 | 1.87e6 | 1.37e6 | 1.56e6 |
| slif | DRSC11635 | 1.66e6 | 1.65e6 | 1.24e6 | 1.33e6 |
| GNBP3 | DRSC11170 | 1.52e6 | 1.54e6 | 1.22e6 | 1.32e6 |
| CG4572 | DRSC15603 | 1.62e6 | 1.70e6 | 1.28e6 | 1.34e6 |
| CG12310 | DRSC09878 | 1.34e6 | 1.43e6 | 1.18e6 | 1.25e6 |
| RpL18 | DRSC11016 | 6.44e5 (active) | 7.86e5 | 5.69e5 | 6.40e5 |
| eag | DRSC19067 | 1.35e6 | 1.70e6 | 1.10e6 | 1.22e6 |
| eag | DRSC20328 | 1.57e6 | 1.53e6 | 1.07e6 | 1.20e6 |
| ND-20 | DRSC20164 | 6.08e5 | – | 7.81e5 | – |
| CG1603 | DRSC06602 | 1.26e6 | 1.39e6 | 9.04e5 | 8.67e5 |
| Roc1a | DRSC18483 | 1.36e6 | 1.43e6 | 7.03e5 | 8.17e5 |
| CG34398 | DRSC01052 | 1.85e6 | 1.79e6 | 1.10e6 | 1.27e6 |
| CG34398 | DRSC02510 | 1.64e6 | 1.70e6 | 1.20e6 | 1.41e6 |
| CG34398 | DRSC02511 | 8.76e5 | 1.07e6 | 1.10e6 | 8.75e5 |
| CG34398 | DRSC03228 | 1.62e6 | 1.78e6 | 1.29e6 | 1.47e6 |
| Adh + Adhr | DRSC01862 | 1.22e6 | 1.33e6 | 1.35e6 | 1.31e6 |
| Adh + Adhr | DRSC01863 | 1.63e6 | 1.62e6 | 1.39e6 | 1.57e6 |
| CG5339 | DRSC04496 | 1.36e6 | 1.47e6 | 1.02e6 | 1.01e6 |
| Vps11 | DRSC11909 | 1.71e6 | 1.88e6 | 1.11e6 | 1.32e6 |
| sfl | DRSC08828 | 1.66e6 | 1.66e6 | 1.18e6 | 1.23e6 |
| sfl | DRSC08830 | 1.30e6 | 1.61e6 | 1.14e6 | 1.29e6 |
| ATbp | DRSC20906 | 1.52e6 | 1.61e6 | 9.91e5 | 1.15e6 |
| CG11504 | DRSC14318 | 5.01e5 | – | 8.63e5 | – |
| MED24 | DRSC10944 | 1.60e6 | 1.58e6 | 1.24e6 | 1.15e6 |
| CG3909 | DRSC14150 | 1.66e6 | 1.71e6 | 1.27e6 | 1.42e6 |
